Construct, isoform or probe ends are uncertain for at least one entry. At least one verdict rests on a figure or table, not on a statement of the authors.

From PMC11302688, “The Effect of Replication Protein A Inhibition and Post-Translational Modification on ATR Kinase Signaling” (Research Square, 2024) come the findings set out here.

This data set has as its system RPA (His-tagged heterotrimer RPA70/RPA32/RPA14). The data set can be described thus: EMSA (dsDNA unwinding). Conditions: unwinding read-out, inhibited by PAME 1.6-25 uM; PAME EMSA: 10 mM Tris pH 7.5, 10 mM NaCl, 10% glycerol, 25 C, 10 nM DNA, 7 nM (ssDNA) or 14 nM (duplex) RPA, 1% agarose; recombinant protein; protein details: His (on RPA70, plasmid p11d-tRPA70-His); label: 5' IRDye700 on polyT. Background: A gel shift assay detects complexes by their altered migration in electrophoresis.

For the sequence “TTTTTTTTTTTTTTTTTTTTTTTTTTTTTT (double strand) [polyT/polyA 30mer duplex]”, the binding result is “binds”.
